From patent publication US20240207258A1, “HETEROCYCLIC PDK1 INHIBITORS FOR USE TO TREAT CANCER” (Viracta Therapeutics, Inc., priority 2015, published 2024)
Some of these results come from one statement about several compounds together.

Legend:
MV4-11 tumor xenografts = assay: MV4-11 tumor xenograft efficacy; assay type: in vivo, mice; details: 21-day dosing, highest dose, summary for both compounds
From the text: MV4-11 cells were propagated in vitro and implanted subcutaneous into the right flank of 9-week old female NCr nu/nu mice as described in Example 7. The animals were fed ad libitum water (reverse osmosis, 1 ppm Cl), and NIH 31 Modified and Irradiated Lab Diet® consisting of 18.0% crude protein, 5.0% crude fat, and 5.0% crude fiber. Fourteen days after tumor implantation, designated as Day 1 of the study, the animals were sorted into seven groups each consisting of ten mice with individual tumor volumes of 108 to 288 mm^3 and group mean tumor volumes (MTV) of 162 to 165 mm^3. On Day 1 of the study, dosing by oral gavage was initiated as follows: The dosing volume was 0.100 mL per 20 grams of body weight (5 mL/kg), and was scaled to the body weight of each individual animal. Group 1 mice received vehicle and served as the control group. Groups 2-4 received Compound 1 at 5, 11, and 25 mg/kg, respectively, qd×21. Groups 5-7 received Compound 2 at 5, 11, and 25 mg/kg, respectively, qd×21. Dosing solutions were prepared weekly by dissolving the appropriate amount of powder in 1% […] (DMA) in Labrasol® (vehicle) to yield a 5 mg/mL solution. The 5 mg/mL solution provided the 25 mg/kg dosage in a dosing volume of 5 mL/kg. An aliquot of the 5 mg/mL solution was diluted in the vehicle to concentrations of 2.2 and 1 mg/mL which provided the 11 and 5 mg/kg dosages, respectively, in a dosing volume of 5 mL/kg.
Tumors were measured using calipers twice per week. The study endpoint was defined as a mean tumor volume of 2000 mm^3 in the control group or 22 days, whichever came first and the study was terminated on Day 22. Animals were weighed daily on Days 1-5, then twice per week until the completion of the study. The mice were observed frequently for overt signs of any adverse, treatment related (TR) side effects, and clinical signs were recorded when observed. Individual body weight loss was monitored as per protocol and any animal whose weight exceeded the limits for acceptable body weight loss was euthanized. Group mean body weight loss also was monitored as per protocol. Dosing was to be suspended in any group whose weight exceeded the limits for acceptable mean body weight loss. […]
Treatment efficacy was determined using data from the final day. The MTV (n) (the median tumor volume for the number of animals, n) on the final day was determined for each group. Group 1 mice that received vehicle p.o. qd×21 served as the control group for analysis of tumor growth inhibition (TGI) determined according to the formula % TGI=[1−(MTVdrug-treated/MTVcontrol)]×100. Treatment efficacy was also determined from the incidence and magnitude of regression responses observed during the study. […]

AKT phosphorylation = assay: Pathway modulation in MV4-11 tumor xenografts, pAKT; assay type: in vivo, mice; details: MV4-11 tumors, single oral gavage, 8 hrs post dose, up to
Description: MV4-11 cells propagated in vitro were implanted subcutaneous into the right flank of 9-week old female NCr nu/nu mice. On the day of implant, MV4-11 cells were harvested during log phase growth and resuspended in phosphate buffered saline (PBS) containing 50% Matrigel™ (BD Biosciences) at a concentration of 1×10^8 cells/mL. Xenografts were initiated by subcutaneously implanting 1×10^7 MV-4-11 cells (0.1 mL suspension) into the right flank of each test animal and tumors were monitored as their volumes approached the target range of 175 to 225 mm^3. Two weeks after implantation, animals were assigned to individual groups of 3 animals with and average tumor volume of approximately 200 mm^3. […] Eight hours post-dose, full blood volume was collected by cardiac puncture under isoflurane anesthesia and tumors were excised and snapfrozen in liquid nitrogen and stored at −80° C. until further analysis. Tumors were pulverized in liquid nitrogen using a Biopulverizer and split into two sample tubes: one for Western blot analysis and one for analysis of compound levels by LC-MS/MS. Western blot analysis was performed as described above. […] Standards and samples were analyzed on a PE Sciex API4000 instrument and compound concentration was quantified and back-calculated to ng compound per g tumor tissue and converted to M concentration assuming 1 g tumor tissue equals 1 mL volume.

MV4-11 cells = assay: Induction of apoptosis (Annexin V / propidium iodide flow cytometry); assay type: cell-based, human; details: 24 hrs
Description: Cells were seeded in a six-well tissue culture plate in 3 mL complete growth medium (3×10^5 cells/well) and allowed to equilibrate for 1 hr at 37° C. in a humidified incubator with 5% CO2. DMSO (control), test compound, or doxorubicin was added to the wells (0.1% final DMSO concentration). Cells were returned to the incubator for 24 hrs. On the day of analysis 1×10^5 cells were labeled according to manufacturer's instructions and analyzed by flow cytometry (BD FACSCaalibur™, GH) to determine the percent of apoptotic cells (annexin V positive, AV+) and/or apoptotic dead cells (AV+ and propidium iodide positive (PI+)).

P-PDK1 = assay: Pathway modulation in MV4-11 tumor xenografts, pPDK1; assay type: in vivo, mice; details: MV4-11 tumors, single oral gavage, 8 hrs, highest concentration
RSK2 phosphorylation = assay: Pathway modulation in MV4-11 tumor xenografts, pRSK2; assay type: in vivo, mice; details: MV4-11 tumors, single oral gavage, 8 hrs post dose, up to

SMILES | TGI reached (MV4-11 tumor xenografts) | partial regression, share of animals (MV4-11 tumor xenografts) | inhibition of AKT phosphorylation in tumors (AKT phosphorylation) | concentration inducing apoptosis (MV4-11 cells) | inhibition of PDK1 phosphorylation in tumors (P-PDK1) | inhibition of RSK2 phosphorylation in tumors (RSK2 phosphorylation)
CNc1n[nH]c2ncc(-c3ccc(CNc4ncc(C#N)nc4C(=O)N[C@@H](C)c4ccc(F)c(F)c4)cc3)cc12 [Compound 2, 6-Cyano-3-[4-(3-methylamino-1H-pyrazolo[3,4-b]pyridin-5-yl)-benzylamino]-pyrazine-2-carboxylic acid [1-(3,4-difluoro-phenyl)-ethyl]-amide] | 96-97% | 70-100% | 80-90% | ≤ 50 nM | 50-60% | 80-90%
C[C@H](NC(=O)c1nc(C#N)cnc1NCc1ccc(-c2cnc3[nH]nc(N)c3n2)cc1)c1ccc(F)c(F)c1 [Compound 1, 3-[4-(3-Amino-1H-pyrazolo[3,4-b]pyrazin-5-yl)-benzylamino]-6-cyano-pyrazine-2-carboxylic acid [1-(3,4-difluoro-phenyl)-ethyl]-amide] | 96-97% | 70-100% | 80-90% | ≤ 50 nM | 50-60% | 80-90%
